Laboratory results as given in the supplement of paper PMC10849652.
This is one part of the list.

Protein sequences, listed by entry. Tags and fused reporters are not part of them. Lines headed by an entry give the natural chain unless they say otherwise; changes in a name come on top.
UniProt Q96AE4: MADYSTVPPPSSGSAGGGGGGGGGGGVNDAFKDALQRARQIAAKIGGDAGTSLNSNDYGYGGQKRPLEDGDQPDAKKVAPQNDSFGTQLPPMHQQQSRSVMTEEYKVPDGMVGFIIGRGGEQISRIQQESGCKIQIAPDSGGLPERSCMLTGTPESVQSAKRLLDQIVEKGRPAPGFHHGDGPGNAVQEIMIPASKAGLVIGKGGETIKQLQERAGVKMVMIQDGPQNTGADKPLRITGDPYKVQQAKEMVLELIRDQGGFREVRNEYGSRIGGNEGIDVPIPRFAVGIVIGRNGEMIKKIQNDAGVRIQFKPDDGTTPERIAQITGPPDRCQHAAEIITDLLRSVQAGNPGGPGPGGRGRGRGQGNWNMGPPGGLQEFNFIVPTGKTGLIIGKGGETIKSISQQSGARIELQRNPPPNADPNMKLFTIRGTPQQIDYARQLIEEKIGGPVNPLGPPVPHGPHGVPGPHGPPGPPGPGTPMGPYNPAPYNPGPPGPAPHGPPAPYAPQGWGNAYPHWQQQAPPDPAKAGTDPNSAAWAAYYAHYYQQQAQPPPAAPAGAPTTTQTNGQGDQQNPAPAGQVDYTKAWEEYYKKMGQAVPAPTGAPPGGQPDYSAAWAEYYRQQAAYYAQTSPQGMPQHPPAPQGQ
UniProt Q9NY12: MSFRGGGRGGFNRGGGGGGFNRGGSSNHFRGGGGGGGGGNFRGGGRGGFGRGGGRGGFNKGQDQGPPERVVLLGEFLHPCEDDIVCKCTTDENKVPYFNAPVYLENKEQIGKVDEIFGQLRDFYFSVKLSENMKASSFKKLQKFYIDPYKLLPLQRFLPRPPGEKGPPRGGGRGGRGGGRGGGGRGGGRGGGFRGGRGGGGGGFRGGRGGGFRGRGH
UniProt Q96RP9: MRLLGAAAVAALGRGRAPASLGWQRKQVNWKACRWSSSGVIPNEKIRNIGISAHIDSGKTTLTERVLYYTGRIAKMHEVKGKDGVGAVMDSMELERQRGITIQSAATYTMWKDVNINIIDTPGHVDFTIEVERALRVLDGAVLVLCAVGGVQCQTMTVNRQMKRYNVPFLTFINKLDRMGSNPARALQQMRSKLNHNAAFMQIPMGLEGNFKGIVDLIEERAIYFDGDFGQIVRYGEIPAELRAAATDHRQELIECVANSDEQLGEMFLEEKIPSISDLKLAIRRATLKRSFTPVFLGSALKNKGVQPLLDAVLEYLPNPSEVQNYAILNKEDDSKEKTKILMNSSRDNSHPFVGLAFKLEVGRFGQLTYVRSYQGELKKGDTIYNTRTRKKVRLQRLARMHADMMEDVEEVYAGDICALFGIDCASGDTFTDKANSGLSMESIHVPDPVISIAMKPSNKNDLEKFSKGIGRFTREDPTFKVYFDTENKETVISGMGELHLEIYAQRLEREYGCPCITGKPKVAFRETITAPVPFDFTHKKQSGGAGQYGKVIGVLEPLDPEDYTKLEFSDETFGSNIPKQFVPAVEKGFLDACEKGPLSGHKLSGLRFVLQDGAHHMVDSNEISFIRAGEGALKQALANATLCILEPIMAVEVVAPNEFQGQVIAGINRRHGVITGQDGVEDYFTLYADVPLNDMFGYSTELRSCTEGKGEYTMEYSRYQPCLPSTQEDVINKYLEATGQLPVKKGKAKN
UniProt Q9UJY5: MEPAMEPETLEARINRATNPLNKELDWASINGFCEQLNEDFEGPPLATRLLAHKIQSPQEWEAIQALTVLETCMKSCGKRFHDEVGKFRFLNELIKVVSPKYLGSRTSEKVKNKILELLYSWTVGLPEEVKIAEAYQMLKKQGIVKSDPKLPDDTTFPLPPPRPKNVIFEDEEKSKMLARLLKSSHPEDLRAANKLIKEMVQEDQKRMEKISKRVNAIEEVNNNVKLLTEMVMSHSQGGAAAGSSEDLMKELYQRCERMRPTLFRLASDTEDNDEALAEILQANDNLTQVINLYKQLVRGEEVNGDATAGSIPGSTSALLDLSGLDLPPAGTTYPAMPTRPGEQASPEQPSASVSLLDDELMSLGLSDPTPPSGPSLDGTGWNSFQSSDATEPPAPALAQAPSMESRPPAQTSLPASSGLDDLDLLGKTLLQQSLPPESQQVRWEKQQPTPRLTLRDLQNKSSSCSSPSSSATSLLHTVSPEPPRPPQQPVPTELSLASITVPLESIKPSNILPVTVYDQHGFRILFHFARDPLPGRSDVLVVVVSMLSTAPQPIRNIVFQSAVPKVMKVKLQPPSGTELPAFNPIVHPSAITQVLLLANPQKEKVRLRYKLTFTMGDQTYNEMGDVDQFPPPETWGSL
UniProt O14976: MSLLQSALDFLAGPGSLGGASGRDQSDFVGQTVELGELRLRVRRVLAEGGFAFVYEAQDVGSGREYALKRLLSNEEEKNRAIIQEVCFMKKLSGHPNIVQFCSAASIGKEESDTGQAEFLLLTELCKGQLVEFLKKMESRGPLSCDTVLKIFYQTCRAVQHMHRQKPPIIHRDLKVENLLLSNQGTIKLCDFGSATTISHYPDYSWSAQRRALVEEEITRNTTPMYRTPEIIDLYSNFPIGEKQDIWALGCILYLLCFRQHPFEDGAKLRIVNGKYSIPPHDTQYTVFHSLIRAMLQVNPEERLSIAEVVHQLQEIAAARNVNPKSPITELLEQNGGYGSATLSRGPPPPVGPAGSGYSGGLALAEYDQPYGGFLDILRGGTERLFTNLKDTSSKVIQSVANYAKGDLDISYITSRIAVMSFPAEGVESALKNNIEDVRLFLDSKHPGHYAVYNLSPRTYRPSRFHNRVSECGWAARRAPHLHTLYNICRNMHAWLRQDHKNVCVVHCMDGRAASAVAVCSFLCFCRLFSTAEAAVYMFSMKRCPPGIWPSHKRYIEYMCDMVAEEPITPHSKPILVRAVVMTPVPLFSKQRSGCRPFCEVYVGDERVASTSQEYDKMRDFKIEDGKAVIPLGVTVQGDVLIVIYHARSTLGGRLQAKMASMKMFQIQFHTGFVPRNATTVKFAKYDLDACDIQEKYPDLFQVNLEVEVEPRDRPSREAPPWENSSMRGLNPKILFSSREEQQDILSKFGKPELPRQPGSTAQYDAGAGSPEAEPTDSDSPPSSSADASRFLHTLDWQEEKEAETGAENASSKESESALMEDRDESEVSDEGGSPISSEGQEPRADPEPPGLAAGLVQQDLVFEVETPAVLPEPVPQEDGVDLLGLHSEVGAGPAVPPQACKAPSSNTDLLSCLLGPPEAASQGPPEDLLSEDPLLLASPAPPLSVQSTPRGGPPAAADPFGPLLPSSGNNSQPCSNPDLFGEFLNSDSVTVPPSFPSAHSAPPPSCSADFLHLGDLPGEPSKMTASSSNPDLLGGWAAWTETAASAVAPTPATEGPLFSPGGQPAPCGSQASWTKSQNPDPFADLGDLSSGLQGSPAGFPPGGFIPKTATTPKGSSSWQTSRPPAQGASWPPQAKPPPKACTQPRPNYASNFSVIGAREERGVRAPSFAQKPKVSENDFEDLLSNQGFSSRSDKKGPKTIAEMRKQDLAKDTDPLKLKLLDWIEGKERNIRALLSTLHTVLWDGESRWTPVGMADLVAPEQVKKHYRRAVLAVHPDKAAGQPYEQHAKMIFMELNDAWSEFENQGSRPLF
UniProt P55789: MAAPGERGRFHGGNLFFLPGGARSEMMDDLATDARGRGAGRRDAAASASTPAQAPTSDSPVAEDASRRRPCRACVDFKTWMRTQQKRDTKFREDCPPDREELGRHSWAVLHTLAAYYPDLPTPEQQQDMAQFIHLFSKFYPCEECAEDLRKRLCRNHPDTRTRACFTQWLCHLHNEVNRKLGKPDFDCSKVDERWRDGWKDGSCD
UniProt Q9UJ14: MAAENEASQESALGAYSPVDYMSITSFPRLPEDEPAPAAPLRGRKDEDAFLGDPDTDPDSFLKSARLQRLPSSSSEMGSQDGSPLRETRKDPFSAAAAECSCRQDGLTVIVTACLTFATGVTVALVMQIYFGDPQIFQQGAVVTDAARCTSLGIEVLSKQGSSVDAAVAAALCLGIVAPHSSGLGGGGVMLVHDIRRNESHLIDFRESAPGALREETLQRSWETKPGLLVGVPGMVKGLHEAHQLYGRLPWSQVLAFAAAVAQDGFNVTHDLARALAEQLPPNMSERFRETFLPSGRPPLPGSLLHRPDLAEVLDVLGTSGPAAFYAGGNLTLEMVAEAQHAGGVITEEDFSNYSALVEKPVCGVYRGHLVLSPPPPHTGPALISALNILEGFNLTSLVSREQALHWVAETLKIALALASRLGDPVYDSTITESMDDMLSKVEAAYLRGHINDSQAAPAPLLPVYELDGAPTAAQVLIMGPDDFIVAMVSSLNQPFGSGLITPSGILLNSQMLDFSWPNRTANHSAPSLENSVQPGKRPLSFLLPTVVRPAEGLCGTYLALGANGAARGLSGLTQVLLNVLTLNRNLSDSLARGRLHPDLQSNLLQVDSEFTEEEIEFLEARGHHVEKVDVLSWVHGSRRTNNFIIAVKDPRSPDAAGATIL
UniProt Q92947: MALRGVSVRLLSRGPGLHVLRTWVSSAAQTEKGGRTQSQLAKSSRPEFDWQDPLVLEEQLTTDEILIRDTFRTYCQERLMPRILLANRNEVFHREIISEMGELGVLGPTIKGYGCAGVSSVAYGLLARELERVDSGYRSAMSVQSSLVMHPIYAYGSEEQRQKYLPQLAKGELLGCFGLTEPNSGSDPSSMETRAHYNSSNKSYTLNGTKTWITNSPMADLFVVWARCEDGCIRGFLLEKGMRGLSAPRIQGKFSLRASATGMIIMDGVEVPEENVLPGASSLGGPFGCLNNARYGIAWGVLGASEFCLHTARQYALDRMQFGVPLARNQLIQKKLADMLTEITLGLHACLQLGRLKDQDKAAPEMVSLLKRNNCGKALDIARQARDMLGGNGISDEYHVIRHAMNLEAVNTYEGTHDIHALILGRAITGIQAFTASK
UniProt O75223: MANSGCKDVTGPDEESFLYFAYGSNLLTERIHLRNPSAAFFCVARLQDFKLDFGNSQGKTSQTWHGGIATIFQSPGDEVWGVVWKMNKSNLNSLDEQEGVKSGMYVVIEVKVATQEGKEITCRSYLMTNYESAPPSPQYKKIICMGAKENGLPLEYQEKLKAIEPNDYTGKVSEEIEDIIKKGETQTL
UniProt Q6NT46: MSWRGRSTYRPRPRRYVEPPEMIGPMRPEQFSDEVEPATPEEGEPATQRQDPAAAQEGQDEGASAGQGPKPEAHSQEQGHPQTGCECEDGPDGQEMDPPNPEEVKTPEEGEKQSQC
UniProt Q06546: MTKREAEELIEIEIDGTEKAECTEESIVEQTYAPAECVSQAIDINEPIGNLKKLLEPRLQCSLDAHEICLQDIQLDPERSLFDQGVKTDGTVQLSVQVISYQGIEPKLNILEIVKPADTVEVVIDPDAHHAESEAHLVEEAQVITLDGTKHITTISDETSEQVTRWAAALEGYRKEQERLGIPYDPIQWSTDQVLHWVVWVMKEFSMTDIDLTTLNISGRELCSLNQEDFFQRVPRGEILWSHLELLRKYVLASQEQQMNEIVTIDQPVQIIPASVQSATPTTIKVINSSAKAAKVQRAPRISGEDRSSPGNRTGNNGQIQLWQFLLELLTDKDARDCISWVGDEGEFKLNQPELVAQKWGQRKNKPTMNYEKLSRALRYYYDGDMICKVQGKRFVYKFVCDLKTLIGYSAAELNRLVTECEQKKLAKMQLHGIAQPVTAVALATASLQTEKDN
UniProt Q8IVV7: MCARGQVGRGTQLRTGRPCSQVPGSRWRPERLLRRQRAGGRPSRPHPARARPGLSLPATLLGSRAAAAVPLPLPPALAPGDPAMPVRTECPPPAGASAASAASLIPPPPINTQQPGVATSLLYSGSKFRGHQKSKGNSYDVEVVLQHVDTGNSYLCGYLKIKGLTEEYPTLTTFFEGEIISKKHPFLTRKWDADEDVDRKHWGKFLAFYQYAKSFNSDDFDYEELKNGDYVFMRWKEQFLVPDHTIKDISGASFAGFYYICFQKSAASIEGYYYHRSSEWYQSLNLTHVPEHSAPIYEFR
UniProt Q7L5D6: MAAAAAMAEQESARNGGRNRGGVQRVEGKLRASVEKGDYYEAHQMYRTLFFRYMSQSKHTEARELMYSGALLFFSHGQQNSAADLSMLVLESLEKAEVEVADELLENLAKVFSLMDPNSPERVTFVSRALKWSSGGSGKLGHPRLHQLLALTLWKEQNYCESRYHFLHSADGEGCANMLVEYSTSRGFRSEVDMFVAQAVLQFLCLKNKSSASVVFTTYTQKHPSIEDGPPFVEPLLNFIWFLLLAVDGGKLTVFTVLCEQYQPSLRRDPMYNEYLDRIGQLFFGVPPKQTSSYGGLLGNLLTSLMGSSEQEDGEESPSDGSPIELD

Key:
Assay in all cases: log2 fold change, soluble protein after heating vs DMSO (PISA); higher = thermal stabilisation; K562 cells, 10 uM, 30 min; active = over 0.2 and 3.5 SD of the protein, either way, in both replicates (recomputed)
[1] = compound: NC(=O)Nc1cc(-c2cccc(F)c2)sc1C(=O)N[C@H]1CCCNC1
Procedure, shortened: (§1)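 Soluble protein was quantified by TMTpro 16plex LC-MS/MS after channel sums were equalised. It was obtained as the supernatant after 21,000xg for 90 min from pooled aliquots of K562 cells (2×10^6 cells/mL, 10 μM compound, 30 min) heated for 3 min across 48°C-58°C and extracted in PBS with 0.5% NP-40 at 4°C. Thermal stability values are relative to control samples and come from duplicates. They are given as log2 fold changes.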

[2] = compound: NC(=O)c1cnc(N[C@@H]2CCCC[C@@H]2N)nc1Nc1cccc(-n2nccn2)c1
Procedure, shortened: as §1

[3] = compound: NC1(c2ccc(-c3nc4ccn5c(=O)[nH]nc5c4cc3-c3ccccc3)cc2)CCC1
Procedure, shortened: as §1

[4] = compound: NCC(=O)Nc1ccc(-n2nc(C(F)(F)F)cc2-c2ccc3c(ccc4ccccc43)c2)cc1
Procedure, shortened: as §1

entinostat = compound: Nc1ccccc1NC(=O)c1ccc(CNC(=O)OCc2cccnc2)cc1 [entinostat]
Procedure, shortened: as §1

vorinostat = compound: O=C(CCCCCCC(=O)Nc1ccccc1)NO [vorinostat]
Procedure, shortened: as §1

citarinostat = compound: O=C(CCCCCCNC(=O)c1cnc(N(c2ccccc2)c2ccccc2Cl)nc1)NO [citarinostat]
Procedure, shortened: as §1

silmitasertib = compound: O=C(O)c1ccc2c(c1)nc(Nc1cccc(Cl)c1)c1ccncc12 [silmitasertib]
Procedure, shortened: as §1

[5] = compound: O=C1NC(=O)C(c2cnc3ccccn23)=C1c1cn2c3c(cc(F)cc13)CN(C(=O)N1CCCCC1)CC2
Procedure, shortened: as §1

[6] = compound: c1cc(OCCN2CCCCC2)cc(-c2n[nH]c3ccc(-c4nnc[nH]4)cc23)c1
Procedure, shortened: as §1

Measured: log2 fold change

FUBP1 isoform 2 (UniProt Q96AE4)
inactive: [1] -0.021 | [2] 0.007 | [3] 0.034 | [4] 0 | entinostat -0.031 | vorinostat -0.029 | citarinostat -0.026 | silmitasertib -0.01 | [5] -0.029 | [6] 0.011

GDI1 (UniProt P31150)
inactive: [1] -0.018 | [2] -0.066 | [3] -0.051 | [4] -0.04 | entinostat -0.016 | vorinostat 0.022 | citarinostat 0.014 | silmitasertib -0.012 | [5] -0.037 | [6] -0.04

GAR1 (UniProt Q9NY12)
inactive: [1] 0.095 | [2] 0.048 | [3] 0.221 | [4] 0.068 | entinostat -0.004 | vorinostat 0.004 | citarinostat -0.051 | silmitasertib 0.099 | [5] 0.157 | [6] -0.15

FUBP1 (UniProt Q96AE4)
inactive: [1] 0.149 | [2] 0.061 | [3] 0.07 | [4] 0.145 | entinostat 0.03 | vorinostat 0.04 | citarinostat 0.025 | silmitasertib 0.004 | [5] -0.029 | [6] 0.018

GFM1 (UniProt Q96RP9)
inactive: [1] -0.004 | [2] -0.046 | [3] -0.138 | [4] -0.106 | entinostat 0.056 | vorinostat 0.051 | citarinostat 0.046 | silmitasertib -0.024 | [5] -0.128 | [6] -0.032

GGA1 isoform 6 (UniProt Q9UJY5)
inactive: [1] 0.025 | [2] -0.002 | [3] -0.04 | [4] -0.025 | entinostat -0.007 | vorinostat 0.038 | citarinostat 0.067 | silmitasertib 0.027 | [5] 0.047 | [6] -0.002

GCC2 (UniProt Q8IWJ2)
inactive: [1] -0.009 | [2] -0.005 | [3] 0.081 | [4] 0.009 | entinostat 0.03 | vorinostat -0.002 | citarinostat -0.066 | silmitasertib 0.212 | [5] 0.225 | [6] 0.009

GAK (UniProt O14976)
inactive: [1] 1.52 | [2] 0.465 | [3] 0.145 | [4] 1.4 | entinostat -0.072 | vorinostat -0.01 | citarinostat -0.244 | silmitasertib 0.607 | [5] 0.236 | [6] 0.687

GARS1 (UniProt P41250)
inactive: [1] 0.003 | [2] -0.014 | [3] -0.014 | [4] -0.007 | entinostat -0.024 | vorinostat -0.03 | citarinostat 0.016 | silmitasertib -0.03 | [5] -0.024 | [6] -0.025

GATAD2A isoform 3 (UniProt Q86YP4)
inactive: [1] -0.009 | [2] -0.282 | [3] -0.05 | [4] 0.043 | entinostat -0.002 | vorinostat -0.042 | citarinostat -0.048 | silmitasertib 0.12 | [5] -0.045 | [6] -0.002

GANAB isoform 2 (UniProt Q14697)
inactive: [1] 0.006 | [2] 0.067 | [3] -0.04 | [4] 0.069 | entinostat 0.02 | vorinostat -0.024 | citarinostat 0.002 | silmitasertib 0 | [5] 0.056 | [6] -0.069

GCAT isoform 2 (UniProt O75600)
inactive: [1] -0.13 | [2] -0.101 | [3] -0.211 | [4] -0.041 | entinostat -0.035 | vorinostat -0.023 | citarinostat -0.062 | silmitasertib 0.049 | [5] 0.062 | [6] 0.032

FSCN1 (UniProt Q16658)
inactive: [1] 0.054 | [2] 0.034 | [3] -0.049 | [4] 0.046 | entinostat 0.018 | vorinostat -0.01 | citarinostat 0.058 | silmitasertib -0.033 | [5] -0.029 | [6] 0.013

GFER (UniProt P55789)
inactive: [1] -0.004 | [2] 0.057 | [3] 0.001 | [4] -0.03 | entinostat -0.027 | vorinostat 0.02 | citarinostat 0.025 | silmitasertib 0.019 | [5] -0.155 | [6] -0.075

GGT7 (UniProt Q9UJ14)
active: [4] 0.288
inactive: [1] -0.034 | [2] 0.04 | [3] -0.076 | entinostat -0.081 | vorinostat 0.062 | citarinostat 0.058 | silmitasertib -0.009 | [5] -0.061 | [6] 0.002

GCDH (UniProt Q92947)
inactive: [1] 0.015 | [2] 0.031 | [3] 0.052 | [4] 0.006 | entinostat -0.002 | vorinostat 0.103 | citarinostat 0.025 | silmitasertib -0.05 | [5] -0.019 | [6] 0.009

GGCT (UniProt O75223)
inactive: [1] -0.047 | [2] -0.049 | [3] -0.045 | [4] 0.01 | entinostat -0.018 | vorinostat 0.004 | citarinostat -0.014 | silmitasertib -0.016 | [5] -0.124 | [6] 0.294

FYCO1 isoform 4 (UniProt Q9BQS8)
inactive: [1] 0.023 | [2] -0.047 | [3] -0.183 | [4] -0.073 | entinostat 0 | vorinostat 0.132 | citarinostat 0.152 | silmitasertib 0.03 | [5] 0.011 | [6] -0.175

Random excerpt: two records from the list.
GCDH (UniProt Q92947)
inactive: [1] 0.015 | [2] 0.031 | [3] 0.052 | [4] 0.006 | entinostat -0.002 | vorinostat 0.103 | citarinostat 0.025 | silmitasertib -0.05 | [5] -0.019 | [6] 0.009

GGT7 (UniProt Q9UJ14)
active: [4] 0.288
inactive: [1] -0.034 | [2] 0.04 | [3] -0.076 | entinostat -0.081 | vorinostat 0.062 | citarinostat 0.058 | silmitasertib -0.009 | [5] -0.061 | [6] 0.002

(further entries)

FXN (UniProt Q16595)
inactive: [1] 0.042 | [2] 0.014 | [3] 0.024 | [4] 0 | entinostat 0.046 | vorinostat -0.032 | citarinostat 0.056 | silmitasertib -0.043 | [5] -0.015 | [6] -0.045

GGNBP2 (UniProt Q9H3C7)
inactive: [1] 0.03 | [2] 0.003 | [3] -0.073 | [4] 0.084 | entinostat 0.061 | vorinostat 0.011 | citarinostat 0.155 | silmitasertib 0.128 | [5] 0.04 | [6] -0.097

GAGE2A (UniProt Q6NT46)
inactive: [1] 0.029 | [2] 0.014 | [3] -0.023 | [4] 0.035 | entinostat 0.007 | vorinostat 0 | citarinostat -0.049 | silmitasertib 0.007 | [5] 0.062 | [6] 0.01

GABPA (UniProt Q06546)
inactive: [1] -0.05 | [2] -0.057 | [3] -0.203 | [4] -0.042 | entinostat 0.108 | vorinostat 0.138 | citarinostat 0.139 | silmitasertib -0.007 | [5] -0.13 | [6] 0.008

FRG1 (UniProt Q14331)
inactive: [1] 0 | [2] 0.056 | [3] 0.065 | [4] 0.023 | entinostat 0.038 | vorinostat -0.007 | citarinostat -0.087 | silmitasertib 0.07 | [5] 0.061 | [6] -0.197

GID4 (UniProt Q8IVV7)
active: entinostat 0.289
inactive: [1] -0.165 | [2] -0.03 | [3] -0.032 | [4] -0.146 | vorinostat -0.074 | citarinostat 0.006 | silmitasertib 0.118 | [5] -0.017 | [6] -0.052

GET4 (UniProt Q7L5D6)
inactive: [1] 0.006 | [2] -0.104 | [3] -0.116 | [4] -0.009 | entinostat 0.033 | vorinostat 0.045 | citarinostat 0.025 | silmitasertib 0.06 | [5] -0.009 | [6] -0.064

GALNT7 (UniProt Q86SF2)
inactive: [1] 0.028 | [2] -0.068 | [3] -0.091 | [4] -0.002 | entinostat -0.009 | vorinostat 0.022 | citarinostat 0.045 | silmitasertib -0.042 | [5] -0.028 | [6] -0.094

FUBP3 (UniProt Q96I24)
inactive: [1] -0.023 | [2] 0.024 | [3] -0.048 | [4] -0.011 | entinostat 0.003 | vorinostat 0.062 | citarinostat -0.005 | silmitasertib 0.045 | [5] 0.186 | [6] 0.006

GALC (UniProt P54803)
inactive: [1] 0.015 | [2] 0.016 | [3] -0.165 | [4] 0.001 | entinostat -0.012 | vorinostat -0.138 | citarinostat 0.017 | silmitasertib 0.042 | [5] 0 | [6] 0.096

FRYL (UniProt O94915)
inactive: [1] -0.044 | [2] 0.007 | [3] -0.1 | [4] -0.009 | entinostat 0.013 | vorinostat 0.014 | citarinostat 0.019 | silmitasertib 0.011 | [5] 0.03 | [6] -0.086

GCSH (UniProt P23434)
inactive: [1] 0.027 | [2] 0.037 | [3] 0.073 | [4] 0.027 | entinostat -0.049 | vorinostat 0.057 | citarinostat 0.022 | silmitasertib 0.193 | [5] -0.144 | [6] -0.04
